{
  "source": "patent US10300000B2",
  "about": "“Inhibition of melanogenesis by chemically modified curcumins” (The Research Foundation for The State University of New York, priority 2016, dated 2019)",
  "key": {"[1]": {"tested_on": "intracellular ROS in B16F10 cells", "experiment": "Intracellular ROS assay (H2DCFDA) in B16F10 cells", "format": "cell-based, mouse", "settings": "48 hours", "protocol": "Intracellular ROS generation was quantified using 2′,7′-dichlorodihydrofluorescein diacetate (H2DCFDA), a non-fluorescent dye which is trapped intracellularly by cleavage by intracellular esterases after reaction with reactive oxygen species (ROS); only the product, DCF, is fluorescent. For measuring intracellular ROS, B16F10 cells were seeded in 24 well plates at 4×10^4 cells/well. After 24 hours, media was aspirated and PC, THC and CMCs were added to the wells at different concentrations and further incubated for 48 hours. At the end of the incubations, the media was aspirated and cells were washed with PBS. DCFDA (Molecular Probes) was dissolved in DMSO to make 10 mM stock. DCFDA dye working stock (50 μM) was prepared by diluting the stock in DMEM (serum-free, phenol-red free and sodium pyruvate free) media and added to cells and further incubated for 45 minutes at 37° C. The cells were then washed with DPBS and fluorescence was read in bottom read mode, using a fluorescence microplate reader (Gemini EM Spectramax, Molecular Devices) set to excitation and emission wavelengths of 485 nm and 535 nm, respectively. Data was expressed as relative fluorescence % of treated vs. control."}, "[2]": {"experiment": "Copper chelating activity assay (pyrocatechol violet)", "format": "physicochemical", "settings": "PV dye method", "protocol": "Metal ion chelation activity can be detected by pyrocatechol violet indicator assay which is similar to that reported in other studies with some modifications [Baek, S-H. et al. 2015]. Briefly, 100 μl of sample containing different concentrations of solutes were mixed with 50 mM sodium acetate buffer (pH 6.0) in a 96 well plate. Control group consisted of buffer only; KA at 500 μM was used as a positive control. Copper sulfate (2 mM; 10 μl) was added to the samples and incubated for 10 minutes. 10 μl of 2 mM pyrocatechol violet was then added and the plate was further incubated for 20 minutes. The absorbance was read at 632 nm using a microplate reader (Versamax). Lower absorbance compared to control was indicative of copper chelation."}, "B16F10 cells": {"tested_on": "B16F10 cells", "experiment": "Melanin content quantification in B16F10 cells", "format": "cell-based, mouse", "settings": "B16F10, tested concentrations, 48 hours", "protocol": "B16F10 cells were seeded at 1×10^5 cells/well in 1.5 ml media in 12-well plates and incubated for 24 hours. […] For quantification of melanin content, cells were trypsinized and cell pellets were washed in PBS. Cell pellets were also visually observed for lightening of the intracellular pigment. After aspiration, 250 μL of 1N NaOH was added and heated to 70° C. to solubilize melanin. The aliquots were then transferred to a 96-well plate and absorbance was read at 475 nm using a microplate reader. A portion of the lysate was used to evaluate total protein content using BCA assay. The melanin absorbance was normalized by total protein content and expressed as % of control."}, "DPPH antioxidant assay": {"experiment": "DPPH antioxidant assay", "settings": "cell-free", "source_text": "Melanogenesis is often associated with higher oxidative stress and reactive oxygen species (ROS) generation. […] DPPH is a stable free radical which changes color from purple to yellow upon reduction by antioxidant compounds by electron donation; the color change can be measured spectrophotometrically. […] Briefly, 2,2-Diphenyl-1-picrylhydrazyl (DPPH) was freshly prepared in methanol and mixed with different concentrations of the compounds in triplicates in a 96 well plate. The Negative Control group consisted of DPPH only and Ascorbic Acid (AA) at 100 μg/ml was used as a positive control. The final DPPH concentration was 100 μM and final volume was 200 ul in the plate (20 μl samples with 180 μl of DPPH). The plate was covered and incubated for 30 minutes. Absorbance was read at 517 nm."}, "[3]": {"tested_on": "αMSH-stimulated B16F10 cells", "experiment": "Melanin content in αMSH-stimulated B16F10 cells", "format": "cell-based, mouse", "parameters": "reduction of melanin: unit of the concentration uncertain", "settings": "for reduction of melanin: 48 hours", "protocol": "B16F10 cells were seeded at 1×10^5 cells/well in 12-well plates and incubated for 24 hours. The test compounds were then added in presence or absence of αMSH (100 nM), and further incubated for another 48 hours. For evaluation of melanin content, cells were trypsinized, washed in PBS and then 250 μL of 1N NaOH was added and heated to 70° C. to solubilize melanin. The aliquots were then transferred to a 96-well plate and absorbance was read at 475 nm using microplate reader. The absorbance of melanin was normalized by total protein contents and reported as % of control."}, "HEM-DP cells": {"tested_on": "HEM-DP cells", "experiment": "Melanin content quantification in human epidermal melanocytes", "format": "cell-based", "settings": "nontoxic concentrations tested (PC 5 and 10 μM), 48 hours", "protocol": "Primary cultures of human epidermal melanocytes from a darkly pigmented donor were seeded at 2.2×10^5 cells/well in 1.5 ml media in 12-well plates and incubated for 48 hours. The test compounds were added to cultures and controls were treated with 0.16% DMSO, and further incubated for another 48 hours. For evaluation of melanin content, cells in the wells were trypsinized and cell pellets were washed in PBS. After aspiration, 250 μL of 1N NaOH was added and heated to 70° C. to solubilize melanin. The aliquots were then transferred to a 96-well plate and absorbance was read at 475 nm using microplate reader. A portion of the lysate was used to evaluate total protein content using […] bincinchonic acid (BCA) assay (Pierce BCA kit, Thermo Scientific). The absorbance of melanin was normalized to the total protein content for each lysate and reported as % of control."}},
  "note": "For at least one compound, name, drawing or mass did not settle the structure. Some results were stated once for a whole list of compounds, not compound by compound.",
  "data": [
    {"smiles": "COc1cc(CCC(=O)CC(=O)CCc2ccc(O)c(OC)c2)ccc1O", "note": "[THC, Tetrahydrocurcumin, reference compound]", "values": [
      {"measurement": "intracellular ROS levels", "setting": "[1]; B16F10, doses higher than 5 μM", "value": "not significantly different from control"},
      {"measurement": "copper chelating activity", "setting": "[2]; 20 μM", "value": 16.7, "unit": "%"},
      {"measurement": "copper chelating activity", "setting": "[2]; 25 μM", "value": 15.5, "unit": "%"},
      {"measurement": "effect on melanin content (words)", "setting": "B16F10 cells", "value": "increased melanin content marginally"},
      {"measurement": "DPPH antioxidant activity", "setting": "DPPH antioxidant assay", "value": "significant antioxidant activity"},
      {"measurement": "melanin reduction at 20 μM", "setting": "[3]; αMSH-stimulated B16F10, 20 μM", "value": "some reduction"},
      {"measurement": "effect on melanin content (words)", "setting": "HEM-DP cells", "value": "did not show any inhibitory activity"}
    ]},
    {"smiles": "COC(=O)C(C(=O)/C=C/c1ccc(O)cc1)C(=O)/C=C/c1ccc(O)cc1", "note": "[CMC2.14]", "values": [
      {"measurement": "reduction of intracellular ROS", "setting": "[1]; B16F10, 10 μM", "value": "up to 20%"}
    ]},
    {"smiles": "COc1cc(/C=C/C(=O)C(C(=O)/C=C/c2ccc(O)c(OC)c2)C(=O)Nc2ccccc2)ccc1O", "note": "[CMC2.23]", "values": [
      {"measurement": "reduction of melanin", "setting": "[3]; αMSH-stimulated B16F10, 20 (unit uncertain) as printed", "value": "≤ 50", "unit": "%"},
      {"measurement": "reduction of melanin", "setting": "[3]; αMSH-stimulated B16F10, 25 (unit uncertain) as printed", "value": "≤ 50", "unit": "%"}
    ]}
  ]
}
